Experimental findings from PMC7862700 are described below.

The other results are listed elsewhere or left out. The source does not settle which construct or isoform was used.

The test addresses T1, ETS1 (UniProt P14921).
T1 sequence: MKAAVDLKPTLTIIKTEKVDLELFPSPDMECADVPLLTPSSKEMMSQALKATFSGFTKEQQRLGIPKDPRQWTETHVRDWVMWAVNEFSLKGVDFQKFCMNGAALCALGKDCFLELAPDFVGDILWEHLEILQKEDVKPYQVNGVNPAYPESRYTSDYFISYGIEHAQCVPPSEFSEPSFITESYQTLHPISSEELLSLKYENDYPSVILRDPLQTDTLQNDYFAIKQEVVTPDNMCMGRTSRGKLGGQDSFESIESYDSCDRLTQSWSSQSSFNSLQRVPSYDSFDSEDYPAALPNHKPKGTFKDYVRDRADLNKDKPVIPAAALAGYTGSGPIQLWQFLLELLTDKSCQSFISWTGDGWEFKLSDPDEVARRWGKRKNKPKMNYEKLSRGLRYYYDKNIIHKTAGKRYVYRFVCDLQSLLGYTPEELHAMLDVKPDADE
Put plainly: DAPPL (digital affinity profiling via proximity ligation, sequencing). The following applies: 10 mM Tris-HCl pH 7.5, 50 mM NaCl, 1 mM DTT, 4% glycerol, room temperature, 30 min; GST-TFs on glutathione beads, 16-mer random dsDNA library, 0.1% …; high values mean tight binding; double strand, one strand shown; scale: fold enrichment (6-mer frequency, TF over GST control).
On to TTTTCA, for which the binding signal came out at 1.18.

As to TTAACT, the binding signal came to 1.26.

TTGCCG registered a binding signal of 1.07.

CTCAGG had a binding signal of 1.07.

For the sequence ATAATT, the binding signal came to 1.35.

As to CCACGC, the binding signal was 1.18.

For TTACTG, the binding signal came to 1.22.

Take TTGCAC: the binding signal was determined as 1.26.

Sequence CTTGTC displayed a binding signal of 1.38.

In the case of CCCCCA, the binding signal is 1.2.

Consider TTACAA, for which the binding signal turned out to be 1.17.

TTTATT came in with a binding signal of 1.27.

TCGCGC displayed a binding signal of 1.13.

Take CCGCGT: the binding signal is 1.17.

Take CCGTAC: the binding signal amounted to 1.33.

On to CCCGAC, for which the binding signal worked out at 1.32.

For the sequence CTCTTC, the binding signal amounted to 1.75.

In turn, ACTTTG gave a binding signal of 1.29.

TTCCGT had a binding signal of 1.91.

Regarding GCTCCT, the binding signal was found to be 1.35.

As for ACTCCC, the binding signal worked out at 1.35.

In the case of TACCGA, the binding signal was 1.11.

ACATCT: the binding signal worked out at 1.29.

For GACCTT, the binding signal turned out to be 1.6.

Regarding TAGCAC, the binding signal came out at 1.1.

TCTCTG: the binding signal turned out to be 1.61.

In the case of GCCGAC, the binding signal was found to be 1.13.

TAAAGA yielded a binding signal of 1.06.

Sequence CACTCG returned a binding signal of 1.17.

Regarding CTCTTG, the binding signal is 1.29.

In turn, GTCTAC had a binding signal of 1.09.

Consider CTATGA, for which the binding signal is 1.09.

In the case of TTCTGC, the binding signal came to 1.47.

AAATAT returned a binding signal of 1.37.

In the case of ACGTTC, the binding signal was determined as 1.31.

Regarding AAAGAA, the binding signal turned out to be 1.31.

In turn, GCTCAA had a binding signal of 1.06.

The sequence TTAGTT showed a binding signal of 1.35.

In turn, GAAATG displayed a binding signal of 1.67.
